# Reference: the supplement of paper PMC10077471
# In all, about 1,900 compounds were measured (“excess over highest single agent (ExcessHSA) synergy score, 6x6 matrix”: median about -83, lowest 2% from about -370 on). The list shows a part of the results.
# System: NCI-H446
# Assay: excess over highest single agent (ExcessHSA) synergy score, 6x6 matrix; higher = less synergy (more negative = stronger synergy)
# Settings: 72 h; CellTiter-Glo viability
row,SMILES,excess over highest single agent
1,Cc1cn[nH]c1 + Cc1sc2c(c1C)C(c1ccc(Cl)cc1)=N[C@@H](CC(=O)OC(C)(C)C)c1nnc(C)n1-2 [NCGC00250412-19],-144
2,COc1c/c(=C2/C=c3ccccc3=N2)[nH]/c1=C/c1[nH]c(C)cc1C + Cc1sc2c(c1C)C(c1ccc(Cl)cc1)=N[C@@H](CC(=O)OC(C)(C)C)c1nnc(C)n1-2 [NCGC00250412-19],-333
3,COc1ccc(-c2ccc3c(N4CCOC[C@@H]4C)nc(N4CCOC[C@@H]4C)nc3n2)cc1CO + Cc1sc2c(c1C)C(c1ccc(Cl)cc1)=N[C@@H](CC(=O)OC(C)(C)C)c1nnc(C)n1-2 [NCGC00250412-19],-247
4,COc1ccc2c(c1)CCC1C2CCC2(C)C(NCCCCCCN3C(=O)C=CC3=O)CCC12 (stereo unspecified) + Cc1sc2c(c1C)C(c1ccc(Cl)cc1)=N[C@@H](CC(=O)OC(C)(C)C)c1nnc(C)n1-2 [NCGC00250412-19],-206
5,CC1(C)C(N(O)C(=O)Nc2ccc(Cl)cc2)N(c2ccc(Cl)cc2)C(=O)N1CC(=O)NN=CC=Cc1ccc([N+](=O)[O-])o1 (stereo unspecified) + Cc1sc2c(c1C)C(c1ccc(Cl)cc1)=N[C@@H](CC(=O)OC(C)(C)C)c1nnc(C)n1-2 [NCGC00250412-19],122
6,COc1nccc(-c2c(-c3ccc(F)cc3)ncn2C2CCC(O)CC2)n1 (stereo unspecified) + Cc1sc2c(c1C)C(c1ccc(Cl)cc1)=N[C@@H](CC(=O)OC(C)(C)C)c1nnc(C)n1-2 [NCGC00250412-19],-34.6
7,CC(=O)Oc1ccccc1C(=O)Nc1ncc([N+](=O)[O-])s1 + Cc1sc2c(c1C)C(c1ccc(Cl)cc1)=N[C@@H](CC(=O)OC(C)(C)C)c1nnc(C)n1-2 [NCGC00250412-19],-27.2
8,NC(=O)c1ccc(N(C(N)=O)c2c(F)cccc2F)nc1-c1ccc(F)cc1F + Cc1sc2c(c1C)C(c1ccc(Cl)cc1)=N[C@@H](CC(=O)OC(C)(C)C)c1nnc(C)n1-2 [NCGC00250412-19],-51.7
9,N#Cc1ccc(C(c2ccc(C#N)cc2)n2cncn2)cc1 + Cc1sc2c(c1C)C(c1ccc(Cl)cc1)=N[C@@H](CC(=O)OC(C)(C)C)c1nnc(C)n1-2 [NCGC00250412-19],-259
10,C[C@@]1(C(=O)Nc2ccc(F)nc2)CCCN1c1nc(Nc2cc(C3CC3)n[nH]2)c2cccn2n1 + Cc1sc2c(c1C)C(c1ccc(Cl)cc1)=N[C@@H](CC(=O)OC(C)(C)C)c1nnc(C)n1-2 [NCGC00250412-19],-249
11,Clc1ccc(CCC(Cn2ccnc2)Sc2c(Cl)cccc2Cl)cc1 (stereo unspecified) + Cc1sc2c(c1C)C(c1ccc(Cl)cc1)=N[C@@H](CC(=O)OC(C)(C)C)c1nnc(C)n1-2 [NCGC00250412-19],-18.2
